From article PMC3814348 (PLoS Pathogens, 2013)
Results are given in words; binding and its absence hold for the method and conditions named. For part of these data: In cells and extracts the contact can be indirect. Some results given as binding are weak or reduced against the parent protein; the word gives no strength. For part of these data: Tags and fused reporters may be left off the sequences shown.

Protein sequences, listed by entry. Tags and fused reporters are not part of them. Lines headed by an entry give the natural chain unless they say otherwise; changes in a name come on top. Residues count along the entry.
UniProt A0QQ44: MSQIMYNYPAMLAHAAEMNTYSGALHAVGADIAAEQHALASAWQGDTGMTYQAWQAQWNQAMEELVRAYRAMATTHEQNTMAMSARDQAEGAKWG
UniProt O14964: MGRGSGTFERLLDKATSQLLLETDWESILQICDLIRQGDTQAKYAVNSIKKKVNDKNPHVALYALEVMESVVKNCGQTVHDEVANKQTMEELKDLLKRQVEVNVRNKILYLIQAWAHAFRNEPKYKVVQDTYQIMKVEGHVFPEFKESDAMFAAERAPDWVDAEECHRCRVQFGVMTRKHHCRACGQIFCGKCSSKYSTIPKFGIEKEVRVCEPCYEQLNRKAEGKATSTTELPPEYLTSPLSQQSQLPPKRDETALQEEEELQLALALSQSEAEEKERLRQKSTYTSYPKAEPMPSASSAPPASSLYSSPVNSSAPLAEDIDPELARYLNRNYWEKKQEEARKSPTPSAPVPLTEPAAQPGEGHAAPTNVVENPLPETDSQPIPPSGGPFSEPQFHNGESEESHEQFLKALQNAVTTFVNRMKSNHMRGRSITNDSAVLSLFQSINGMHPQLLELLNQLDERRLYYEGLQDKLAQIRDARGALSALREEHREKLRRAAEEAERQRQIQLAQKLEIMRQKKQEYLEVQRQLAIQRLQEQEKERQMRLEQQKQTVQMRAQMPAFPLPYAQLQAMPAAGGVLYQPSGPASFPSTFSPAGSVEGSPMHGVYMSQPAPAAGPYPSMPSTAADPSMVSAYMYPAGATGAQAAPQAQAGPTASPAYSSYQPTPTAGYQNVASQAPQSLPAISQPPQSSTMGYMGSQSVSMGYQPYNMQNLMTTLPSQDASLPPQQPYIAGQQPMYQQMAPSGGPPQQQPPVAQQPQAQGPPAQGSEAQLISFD
Hrs-398-777-V5 (not stated (human, mouse or zebrafish cDNA cloned)): residues 398-777 of O14964
UniProt P9WIA1: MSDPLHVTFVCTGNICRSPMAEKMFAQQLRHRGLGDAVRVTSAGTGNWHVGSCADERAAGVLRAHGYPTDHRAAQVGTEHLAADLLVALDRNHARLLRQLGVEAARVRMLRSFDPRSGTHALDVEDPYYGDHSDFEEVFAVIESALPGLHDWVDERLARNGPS
UniProt Q99LI8: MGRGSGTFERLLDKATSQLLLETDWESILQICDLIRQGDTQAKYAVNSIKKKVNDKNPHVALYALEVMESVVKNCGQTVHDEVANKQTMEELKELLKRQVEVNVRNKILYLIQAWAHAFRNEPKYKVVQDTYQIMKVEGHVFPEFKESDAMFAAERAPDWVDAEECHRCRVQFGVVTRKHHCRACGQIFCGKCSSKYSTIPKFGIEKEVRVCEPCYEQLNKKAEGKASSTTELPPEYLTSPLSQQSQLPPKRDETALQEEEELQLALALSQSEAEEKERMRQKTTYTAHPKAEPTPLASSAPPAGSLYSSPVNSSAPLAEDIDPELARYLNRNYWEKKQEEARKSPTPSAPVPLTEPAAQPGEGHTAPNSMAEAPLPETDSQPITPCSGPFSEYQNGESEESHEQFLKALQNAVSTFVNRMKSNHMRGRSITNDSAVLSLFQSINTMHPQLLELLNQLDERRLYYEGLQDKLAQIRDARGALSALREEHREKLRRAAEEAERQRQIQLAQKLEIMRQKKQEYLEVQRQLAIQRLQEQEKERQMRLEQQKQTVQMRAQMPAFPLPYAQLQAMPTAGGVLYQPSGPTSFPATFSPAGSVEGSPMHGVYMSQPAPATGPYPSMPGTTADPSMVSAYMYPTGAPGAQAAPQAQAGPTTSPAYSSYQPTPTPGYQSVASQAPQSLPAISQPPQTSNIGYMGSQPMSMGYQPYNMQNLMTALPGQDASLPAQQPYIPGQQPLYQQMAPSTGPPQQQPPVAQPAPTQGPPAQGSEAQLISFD

Columns and labels:
[1] = target: T1, EsxHMt Gal4 DNA-binding domain fusion (Mycobacterium tuberculosis) (UniProt P9WNK3); test: two-hybrid
T1 sequence: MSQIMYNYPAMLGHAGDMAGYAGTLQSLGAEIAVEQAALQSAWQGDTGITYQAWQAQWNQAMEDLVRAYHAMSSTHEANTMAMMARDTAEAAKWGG

[2] = target: EsxHMs Gal4 DNA-binding domain fusion (Mycobacterium smegmatis) (UniProt A0QQ44); test: two-hybrid
[3] = target: Hrs-398-777-V5 (not stated (human, mouse or zebrafish cDNA cloned)) (UniProt O14964); test: co-IP
[4] = target: PtpA (Mycobacterium tuberculosis) (UniProt P9WIA1); test: two-hybrid

| Molecule | binding [1] | other results |
| --- | --- | --- |
| human hepatocyte growth factor-regulated tyrosine kinase substrate (Hgs/Hrs), Gal4 activation domain fusion (from UniProt O14964 1-777) | binds | – |
| mouse Hrs, Gal4 activation domain fusion (from UniProt Q99LI8 1-775) | binds | – |
| EsxGMt Gal4 activation domain fusion (protein, UniProt O53692 1-97) MSLLDAHIPQLVASQSAFAAKAGLMRHTIGQAEQAAMSAQAFHQGESSAAFQAAHARFVAAAAKVNTLLDVAQANLGEAAGTYVAADAAAASTYTGF | binds | binding [2]: binds |
| EsxHMt-FLAG (protein, UniProt P9WNK3 1-96) MSQIMYNYPAMLGHAGDMAGYAGTLQSLGAEIAVEQAALQSAWQGDTGITYQAWQAQWNQAMEDLVRAYHAMSSTHEANTMAMMARDTAEAAKWGG | – | binding [3]: binds |
| Ligand of Numb protein X (LNX1) (protein, UniProt Q8TBB1 1-728) MNQPESANDPEPLCAVCGQAHSLEENHFYSYPEEVDDDLICHICLQALLDPLDTPCGHTYCTLCLTNFLVEKDFCPMDRKPLVLQHCKKSSILVNKLLNKLLVTCPFREHCTQVLQRCDLEHHFQTSCKGASHYGLTKDRKRRSQDGCPDGCASLTATAPSPEVSAAATISLMTDEPGLDNPAYVSSAEDGQPAISPVDSGRSNRTRARPFERSTIRSRSFKKINRALSVLRRTKSGSAVANHADQGRENSENTTAPEVFPRLYHLIPDGEITSIKINRVDPSESLSIRLVGGSETPLVHIIIQHIYRDGVIARDGRLLPGDIILKVNGMDISNVPHNYAVRLLRQPCQVLWLTVMREQKFRSRNNGQAPDAYRPRDDSFHVILNKSSPEEQLGIKLVRKVDEPGVFIFNVLDGGVAYRHGQLEENDRVLAINGHDLRYGSPESAAHLIQASERRVHLVVSRQVRQRSPDIFQEAGWNSNGSWSPGPGERSNTPKPLHPTITCHEKVVNIQKDPGESLGMTVAGGASHREWDLPIYVISVEPGGVISRDGRIKTGDILLNVDGVELTEVSRSEAVALLKRTSSSIVLKALEVKEYEPQEDCSSPAALDSNHNMAPPSDWSPSWVMWLELPRCLYNCKDIVLRRNTAGSLGFCIVGGYEEYNGNKPFFIKSIVEGTPAYNDGRIRCGDILLAVNGRSTSGMIHACLARLLKELKGRITLTIVSWPGTFL | – | binding [4]: binds |
